Measured values published in the supplement of paper PMC12823440, “Inhibitors supercharge kinase turnover through native proteolytic circuits” (Nature, 2025).
This is one part of the list. The calls rarely recur for the same compound in another form.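 Kinases were expressed as nanoluciferase fusions in K562 cells and luminescence was read every 4 h between 2 and 18 h as percent of control, DMSO set to 100% and a positive control to 0%. A time point counts as decreased when the signal drops significantly (2 sigma). The hit call is the authors' own, does not follow from the count of time points alone, and its rule is not shown.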

By UniProt entry, the sequences of proteins in these tests, tags left out. Where a name states a change or a piece, a line headed by the entry shows the natural chain unless it says otherwise.
UniProt Q05397, whole entry, looked up: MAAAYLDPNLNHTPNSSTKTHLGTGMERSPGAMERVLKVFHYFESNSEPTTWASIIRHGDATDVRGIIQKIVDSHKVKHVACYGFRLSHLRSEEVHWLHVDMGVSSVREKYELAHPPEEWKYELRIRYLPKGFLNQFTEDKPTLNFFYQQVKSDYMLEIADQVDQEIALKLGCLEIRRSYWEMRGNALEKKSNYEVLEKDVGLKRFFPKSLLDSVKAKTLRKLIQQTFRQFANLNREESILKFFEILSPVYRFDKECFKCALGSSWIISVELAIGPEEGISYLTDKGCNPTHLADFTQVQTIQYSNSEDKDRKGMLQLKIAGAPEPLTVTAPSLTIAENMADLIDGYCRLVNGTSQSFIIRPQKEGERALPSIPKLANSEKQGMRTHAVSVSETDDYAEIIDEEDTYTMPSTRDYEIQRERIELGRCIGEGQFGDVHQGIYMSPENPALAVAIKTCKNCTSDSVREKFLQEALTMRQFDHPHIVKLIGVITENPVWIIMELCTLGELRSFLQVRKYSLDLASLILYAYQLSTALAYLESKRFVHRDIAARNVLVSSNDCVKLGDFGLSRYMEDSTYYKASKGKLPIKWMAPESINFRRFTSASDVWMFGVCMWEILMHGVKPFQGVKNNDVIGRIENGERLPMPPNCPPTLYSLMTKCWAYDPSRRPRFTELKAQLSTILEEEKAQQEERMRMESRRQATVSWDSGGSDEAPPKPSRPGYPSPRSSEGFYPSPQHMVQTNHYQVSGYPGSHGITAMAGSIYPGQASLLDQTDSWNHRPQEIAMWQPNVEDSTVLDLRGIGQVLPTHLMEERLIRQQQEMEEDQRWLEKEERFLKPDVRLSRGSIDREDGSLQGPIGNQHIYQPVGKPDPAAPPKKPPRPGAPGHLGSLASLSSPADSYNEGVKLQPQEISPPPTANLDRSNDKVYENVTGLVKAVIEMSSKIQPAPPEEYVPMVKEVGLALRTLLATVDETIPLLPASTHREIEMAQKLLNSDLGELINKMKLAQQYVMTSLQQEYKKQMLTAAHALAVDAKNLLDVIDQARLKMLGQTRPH
UniProt Q14289, whole entry, looked up: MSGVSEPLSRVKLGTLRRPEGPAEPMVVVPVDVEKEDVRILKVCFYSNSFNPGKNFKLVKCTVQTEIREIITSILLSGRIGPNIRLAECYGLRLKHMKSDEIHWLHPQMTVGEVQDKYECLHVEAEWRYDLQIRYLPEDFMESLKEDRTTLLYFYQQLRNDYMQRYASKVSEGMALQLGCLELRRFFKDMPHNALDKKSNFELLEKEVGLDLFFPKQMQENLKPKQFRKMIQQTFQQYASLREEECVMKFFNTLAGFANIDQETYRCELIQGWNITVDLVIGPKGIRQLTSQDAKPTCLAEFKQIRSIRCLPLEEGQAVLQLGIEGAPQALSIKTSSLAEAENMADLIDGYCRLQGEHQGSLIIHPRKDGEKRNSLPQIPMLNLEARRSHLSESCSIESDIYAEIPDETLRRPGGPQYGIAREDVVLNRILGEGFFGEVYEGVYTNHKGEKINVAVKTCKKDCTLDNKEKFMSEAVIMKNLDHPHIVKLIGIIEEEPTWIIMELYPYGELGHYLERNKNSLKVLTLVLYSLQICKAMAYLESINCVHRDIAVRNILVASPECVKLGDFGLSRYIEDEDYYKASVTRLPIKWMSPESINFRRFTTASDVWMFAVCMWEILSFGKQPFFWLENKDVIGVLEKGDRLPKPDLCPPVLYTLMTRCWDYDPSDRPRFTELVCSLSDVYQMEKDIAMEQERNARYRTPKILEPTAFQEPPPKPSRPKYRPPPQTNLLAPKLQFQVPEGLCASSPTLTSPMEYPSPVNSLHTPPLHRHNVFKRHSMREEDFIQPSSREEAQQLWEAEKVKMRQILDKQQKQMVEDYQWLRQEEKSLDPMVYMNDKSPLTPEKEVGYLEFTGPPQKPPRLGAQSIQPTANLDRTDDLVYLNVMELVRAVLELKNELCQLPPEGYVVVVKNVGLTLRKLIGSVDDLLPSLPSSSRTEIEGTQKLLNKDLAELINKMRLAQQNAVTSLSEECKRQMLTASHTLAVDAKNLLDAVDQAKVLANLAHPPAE
UniProt P07949, whole entry, looked up: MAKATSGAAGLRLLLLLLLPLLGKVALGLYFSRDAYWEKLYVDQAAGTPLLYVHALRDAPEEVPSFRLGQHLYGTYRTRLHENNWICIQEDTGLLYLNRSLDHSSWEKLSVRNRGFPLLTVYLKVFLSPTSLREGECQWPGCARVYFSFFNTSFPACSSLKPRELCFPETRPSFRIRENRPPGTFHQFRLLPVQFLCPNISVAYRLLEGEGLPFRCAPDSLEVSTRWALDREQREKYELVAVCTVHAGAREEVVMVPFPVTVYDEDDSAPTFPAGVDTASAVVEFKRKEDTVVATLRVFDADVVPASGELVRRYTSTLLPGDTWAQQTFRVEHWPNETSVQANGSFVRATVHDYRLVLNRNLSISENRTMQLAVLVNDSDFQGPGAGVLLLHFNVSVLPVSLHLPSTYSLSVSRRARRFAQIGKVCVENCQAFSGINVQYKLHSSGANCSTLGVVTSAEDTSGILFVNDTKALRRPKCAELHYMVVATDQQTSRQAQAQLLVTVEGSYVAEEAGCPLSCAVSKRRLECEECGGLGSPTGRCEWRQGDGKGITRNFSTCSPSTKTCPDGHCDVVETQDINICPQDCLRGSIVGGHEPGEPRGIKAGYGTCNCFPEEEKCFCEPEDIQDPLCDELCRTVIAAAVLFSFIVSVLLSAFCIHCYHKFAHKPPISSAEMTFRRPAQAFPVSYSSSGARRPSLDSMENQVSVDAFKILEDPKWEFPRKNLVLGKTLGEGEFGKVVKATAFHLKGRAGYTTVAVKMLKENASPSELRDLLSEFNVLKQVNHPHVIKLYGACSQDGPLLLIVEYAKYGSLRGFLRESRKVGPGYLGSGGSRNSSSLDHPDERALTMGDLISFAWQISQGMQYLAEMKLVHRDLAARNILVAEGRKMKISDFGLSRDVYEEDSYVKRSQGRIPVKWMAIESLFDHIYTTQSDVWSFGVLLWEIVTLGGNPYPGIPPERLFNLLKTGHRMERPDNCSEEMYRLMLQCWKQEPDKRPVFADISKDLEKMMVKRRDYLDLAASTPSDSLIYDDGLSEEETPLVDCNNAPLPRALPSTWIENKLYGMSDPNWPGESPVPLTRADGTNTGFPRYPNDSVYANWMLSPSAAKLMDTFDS
UniProt P07949, whole entry M918T, looked up: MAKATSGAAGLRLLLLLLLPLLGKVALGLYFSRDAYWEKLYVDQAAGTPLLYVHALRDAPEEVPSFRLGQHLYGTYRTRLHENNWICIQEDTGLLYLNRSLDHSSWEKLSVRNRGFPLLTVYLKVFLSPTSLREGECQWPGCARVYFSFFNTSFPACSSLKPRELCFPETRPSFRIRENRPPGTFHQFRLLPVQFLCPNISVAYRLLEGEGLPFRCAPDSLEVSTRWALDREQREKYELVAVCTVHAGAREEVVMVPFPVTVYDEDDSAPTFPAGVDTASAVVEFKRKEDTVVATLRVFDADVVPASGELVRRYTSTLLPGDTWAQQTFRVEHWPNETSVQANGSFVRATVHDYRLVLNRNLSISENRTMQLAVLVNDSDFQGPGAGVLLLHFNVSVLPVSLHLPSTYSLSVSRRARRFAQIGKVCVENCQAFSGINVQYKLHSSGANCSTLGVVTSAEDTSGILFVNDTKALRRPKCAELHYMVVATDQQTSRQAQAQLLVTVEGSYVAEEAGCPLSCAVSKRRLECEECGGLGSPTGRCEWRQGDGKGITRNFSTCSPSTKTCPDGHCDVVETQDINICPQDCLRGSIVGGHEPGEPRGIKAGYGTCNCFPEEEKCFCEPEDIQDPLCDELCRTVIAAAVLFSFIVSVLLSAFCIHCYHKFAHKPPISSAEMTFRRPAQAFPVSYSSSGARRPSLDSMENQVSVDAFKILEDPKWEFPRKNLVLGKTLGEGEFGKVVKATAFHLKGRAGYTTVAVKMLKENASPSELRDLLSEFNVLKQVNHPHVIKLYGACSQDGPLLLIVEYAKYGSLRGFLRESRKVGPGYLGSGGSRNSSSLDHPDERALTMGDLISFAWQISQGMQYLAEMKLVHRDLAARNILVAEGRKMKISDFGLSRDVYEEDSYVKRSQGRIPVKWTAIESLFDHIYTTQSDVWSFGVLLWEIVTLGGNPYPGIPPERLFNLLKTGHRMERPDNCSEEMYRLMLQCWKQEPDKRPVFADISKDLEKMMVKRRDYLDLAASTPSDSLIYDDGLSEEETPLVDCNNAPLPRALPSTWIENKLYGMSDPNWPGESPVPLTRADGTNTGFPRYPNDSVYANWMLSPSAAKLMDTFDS
UniProt Q9BRS2: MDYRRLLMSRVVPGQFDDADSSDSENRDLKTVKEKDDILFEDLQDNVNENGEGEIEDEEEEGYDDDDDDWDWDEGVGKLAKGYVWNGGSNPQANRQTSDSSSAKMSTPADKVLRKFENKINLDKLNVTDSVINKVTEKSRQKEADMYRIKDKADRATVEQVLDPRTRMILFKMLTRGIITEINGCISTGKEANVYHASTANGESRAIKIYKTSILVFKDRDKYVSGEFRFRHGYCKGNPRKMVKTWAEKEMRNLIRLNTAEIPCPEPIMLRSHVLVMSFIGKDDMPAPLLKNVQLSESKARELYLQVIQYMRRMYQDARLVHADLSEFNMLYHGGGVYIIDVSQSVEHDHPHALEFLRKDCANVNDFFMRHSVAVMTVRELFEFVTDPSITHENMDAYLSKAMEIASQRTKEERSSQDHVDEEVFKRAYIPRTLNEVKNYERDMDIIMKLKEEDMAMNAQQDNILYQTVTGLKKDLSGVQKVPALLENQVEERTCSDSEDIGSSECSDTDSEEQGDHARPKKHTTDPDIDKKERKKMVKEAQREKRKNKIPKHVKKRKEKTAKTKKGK
UniProt Q13546: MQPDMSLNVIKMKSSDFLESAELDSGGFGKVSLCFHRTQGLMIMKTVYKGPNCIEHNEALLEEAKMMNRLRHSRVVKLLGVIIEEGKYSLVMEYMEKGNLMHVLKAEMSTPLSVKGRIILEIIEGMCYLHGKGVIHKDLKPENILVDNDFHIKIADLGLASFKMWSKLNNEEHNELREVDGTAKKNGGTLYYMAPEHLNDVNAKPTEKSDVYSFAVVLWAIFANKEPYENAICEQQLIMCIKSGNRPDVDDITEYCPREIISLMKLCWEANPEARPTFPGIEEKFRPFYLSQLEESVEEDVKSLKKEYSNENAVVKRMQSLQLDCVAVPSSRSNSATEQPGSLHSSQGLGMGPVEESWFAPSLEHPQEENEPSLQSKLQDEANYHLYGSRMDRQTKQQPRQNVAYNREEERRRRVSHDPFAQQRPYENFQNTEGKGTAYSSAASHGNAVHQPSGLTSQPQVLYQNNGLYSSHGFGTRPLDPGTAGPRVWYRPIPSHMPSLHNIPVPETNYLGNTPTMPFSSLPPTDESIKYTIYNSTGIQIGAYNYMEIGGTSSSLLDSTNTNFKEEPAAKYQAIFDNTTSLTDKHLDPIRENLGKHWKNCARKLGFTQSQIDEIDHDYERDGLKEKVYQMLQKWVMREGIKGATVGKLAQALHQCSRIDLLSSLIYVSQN

Columns and labels:
Assay in all cases: number of time points (of 5) at which kinase-Nluc abundance scored as decreased, DMSO-normalised (count); higher = more persistent destabilization
Conditions in all cases: K562; 2-18 h
PRKCA = PRKCA (UniProt P17252)
PTK2 = PTK2 (UniProt Q05397)
PTK2B = PTK2B (UniProt Q14289)
RAF1 = RAF1 (UniProt P04049)
[1] = target: RAF1_S257L (clone: RAF1_mut) (UniProt P04049)
RET = RET (UniProt P07949)
[2] = target: RET_M918T (clone: RET_mut) (UniProt P07949)
RIOK1 = RIOK1 (UniProt Q9BRS2)
RIPK1 = RIPK1 (UniProt Q13546)
RIPK2 = RIPK2 (UniProt O43353)

SMILES | number of time points (PRKCA) | number of time points (PTK2) | number of time points (PTK2B) | number of time points (RAF1) | number of time points [1] | number of time points (RET) | number of time points [2] | number of time points (RIOK1) | number of time points (RIPK1) | number of time points (RIPK2)
CCCCCC(=O)N[C@@H](Cc1ccc(O)cc1)C(=O)OC (10 µM) | 0 | 0 | 0 | 0 | 0 | 0 | 0 | 0 | 0 | 0
Nc1[nH]nc2nc(-c3ccc(NS(=O)(=O)c4cc(Cl)ccc4Cl)cc3)cnc12 (10 µM) | 0 | 0 | 0 | 0 | 0 | 0 | 0 | 0 | 0 | 0
COc1cc2ncnc(Oc3ccc(CC(=O)Nc4cnn(C(C)C)c4)cc3)c2cc1OC (10 µM) | 0 | 0 | 0 | 0 | 2 | 0 | 0 | 0 | 0 | 0
Cc1cccc(COc2cccc(/C=C3\C(=O)NN(c4ccccc4)C3=O)c2)c1 (10 µM) | 0 | 0 | 0 | 0 | 0 | 0 | 0 | 0 | 0 | 0
Cc1ccc(NC(=O)Nc2cc(C(F)(F)F)ccc2F)cc1Nc1ccc2c(c1)NC(=O)/C2=C\c1ccc[nH]1 (2.5 µM) | 0 | 0 | 0 | 0 | 0 | 1 | 0 | 0 | 0 | 0
Cn1c(=O)c2c(nc(S(C)(=O)=O)n2C)n(CC#Cc2cccc(O)c2)c1=O (2.5 µM) | 0 | 0 | 0 | 0 | 0 | 0 | 0 | 0 | 0 | 0
CN1CCC(CNc2ccc3ncc(-c4cccc(OC(F)(F)F)c4)n3n2)CC1 (2.5 µM) | 0 | 0 | 0 | 0 | 0 | 0 | 0 | 0 | 0 | 0
O=C(Nc1cccc(-c2nc(-c3ccc(NC(=O)c4cccnc4)cc3Cl)no2)c1)Nc1ccc(NC(=O)C2CC2)c(C(F)(F)F)c1 (2.5 µM) | 0 | 1 | 0 | 0 | 0 | 0 | 0 | 0 | 0 | 0
O=c1[nH]ccc2nc(-c3ccc(CN4CCC(c5nc(-c6ccccn6)n[nH]5)CC4)cc3)c(-c3ccccc3)cc12 (10 µM) | 0 | 0 | 0 | 0 | 0 | 0 | 0 | 0 | 0 | 0
COc1cc(-c2cc(OP(=O)(O)O)cc(-c3cc(OC)c(OC)c(OC)c3)c2)cc(OC)c1OC [Stafia-1] (10 µM) | 0 | 0 | 0 | 0 | 0 | 0 | 0 | 0 | 0 | 0
CN1CCN(c2ccc(Nc3ncc4cc(C#N)c(=O)n(C5CCCC5)c4n3)cc2)CC1 (10 µM) | 0 | 0 | 0 | 0 | 0 | 0 | 0 | 0 | 0 | 3
COc1cc2cc(Oc3ccc4ccc(=O)oc4c3)c(=O)oc2cc1O [Daphnoretin] (10 µM) | 0 | 0 | 0 | 0 | 0 | 0 | 0 | 0 | 0 | 0
O=C(Nc1ccc(Cl)cc1)C1CCCN(C(=O)c2cc(C(F)(F)F)cc(C(F)(F)F)c2)C1 (stereo not given) (10 µM) | 0 | 3 | 0 | 0 | 0 | 0 | 0 | 0 | 0 | 0
COC(=O)/C=C/c1ccccc1 [Methyl cinnamate] (10 µM) | 0 | 0 | 0 | 0 | 0 | 0 | 0 | 0 | 0 | 0
O=C(NCCO)c1cc(C(=O)NCCO)cc(C(=O)NCCO)c1 (10 µM) | 0 | 0 | 0 | 0 | 0 | 0 | 0 | 0 | 0 | 0
COc1cc2c(cc1OC)/C(=C/c1ccc(O)cc1)C(=O)N2 (10 µM) | 0 | 0 | 0 | 0 | 0 | 0 | 0 | 0 | 0 | 0
c1ccc(Cn2c(-c3ccc(OC[C@H](C4CCNCC4)n4c(-c5ccccc5)nc5ccccc54)cc3)nc3ccccc32)cc1 [Deltarasin] (2.5 µM) | 0 | 0 | 0 | 0 | 0 | 0 | 0 | 0 | 0 | 0

A run of entries of the results above, as a working copy:
SMILES | number of time points (PRKCA) | number of time points (PTK2) | number of time points (PTK2B) | number of time points (RAF1) | number of time points [1] | number of time points (RET) | number of time points [2] | number of time points (RIOK1) | number of time points (RIPK1) | number of time points (RIPK2)
O=C(NCCO)c1cc(C(=O)NCCO)cc(C(=O)NCCO)c1 (10 µM) | 0 | 0 | 0 | 0 | 0 | 0 | 0 | 0 | 0 | 0
COc1cc2c(cc1OC)/C(=C/c1ccc(O)cc1)C(=O)N2 (10 µM) | 0 | 0 | 0 | 0 | 0 | 0 | 0 | 0 | 0 | 0

Remaining list, next part.

SMILES | number of time points (PRKCA) | number of time points (PTK2) | number of time points (PTK2B) | number of time points (RAF1) | number of time points [1] | number of time points (RET) | number of time points [2] | number of time points (RIOK1) | number of time points (RIPK1) | number of time points (RIPK2)
COc1cc(N2CCOCC2)ccc1Nc1ncc(F)c(Nc2ccccc2NS(C)(=O)=O)n1 (10 µM) | 0 | 0 | 0 | 0 | 0 | 0 | 0 | 0 | 0 | 0
O=c1c2c([nH]n1-c1nc3ccccc3s1)CCCC2 (10 µM) | 0 | 0 | 0 | 0 | 0 | 0 | 0 | 0 | 0 | 0
CNC(=O)c1cc2c(Oc3ccc(NC(=O)C4(C(=O)Nc5ccc(F)cc5)CC4)cc3)ccnc2cc1OC (2.5 µM) | 0 | 1 | 1 | 3 | 4 | 1 | 1 | 2 | 2 | 3
CNC(=O)c1ccc2c(C(=Nc3cccc(CN(C)C)c3)c3ccccc3)c(O)[nH]c2c1 [MEK inhibitor] (10 µM) | 0 | 0 | 0 | 0 | 0 | 0 | 0 | 0 | 0 | 0
CC(Cc1ccc(O)c(O)c1)C(C)Cc1ccc(O)c(O)c1 (stereo not given) [Nordihydroguaiaretic acid] (2.5 µM) | 0 | 0 | 0 | 0 | 0 | 0 | 0 | 0 | 0 | 0
Cc1cc(-n2c(=O)ccc3c[nH]c4nccc-4c32)ccc1F (10 µM) | 0 | 0 | 0 | 0 | 1 | 0 | 0 | 0 | 0 | 0
N#Cc1ccc(-c2cnc3[nH]cc(NC(=O)c4cccnc4)c3c2)cc1 (10 µM) | 0 | 5 | 0 | 0 | 0 | 0 | 0 | 0 | 0 | 0
Cc1cc(Nc2cc(N)ncn2)c(=O)n2c1C(=O)NC21CCCCC1 [Tomivosertib] (10 µM) | 0 | 0 | 0 | 0 | 0 | 0 | 0 | 0 | 0 | 0
Nc1ncc(C(=O)NC2CN(C(=O)C3CC3)C2)c2ccc(-c3cccc(F)c3)nc12 (2 µM) | 0 | 0 | 0 | 0 | 0 | 0 | 0 | 0 | 0 | 0
O=C(Nc1cccnc1)c1cc(-c2ccnc(F)c2)ccc1OCc1ccccc1 (10 µM) | 0 | 0 | 0 | 0 | 0 | 0 | 0 | 0 | 0 | 0
C=CC(=O)N1CC[C@@H](Oc2nc(Nc3ccc(N4CCC(N5CCN(C)CC5)CC4)cc3)c(C(N)=O)nc2CC)C1 [Naquotinib (mesylate)] (2.5 µM) | 0 | 0 | 0 | 0 | 0 | 0 | 0 | 0 | 0 | 0
Cc1cccc(-c2[nH]ncc2-c2ccnc3ccccc23)n1 (10 µM) | 0 | 0 | 0 | 0 | 0 | 0 | 0 | 0 | 0 | 0
Nc1nc(N)c2nc(-c3cccc(O)c3)c(-c3cccc(O)c3)nc2n1 (10 µM) | 0 | 0 | 0 | 0 | 0 | 0 | 0 | 0 | 0 | 0
CN1CCN(c2cc(-c3ccncc3)c(-c3ccc4ccccc4c3)nn2)CC1 (10 µM) | 0 | 0 | 0 | 0 | 0 | 0 | 0 | 0 | 0 | 0
Cc1cc(CSc2ccccc2C(=O)NCCNc2ccc(C(F)(F)F)cc2[N+](=O)[O-])on1 (10 µM) | 0 | 0 | 0 | 0 | 0 | 0 | 0 | 0 | 0 | 0
Cc1cc(O)c2c(c1)C(=O)c1cccc(O)c1C2=O [Chrysophanol] (2 µM) | 0 | 0 | 0 | 0 | 0 | 0 | 0 | 0 | 0 | 0
